Results are given in words; binding and its absence hold for the method and conditions named.

This note sets out measurements from patent US20190077867A1 (REYOUNG SUZHOU BIOLOGY SCIENCE AND TECHNOLOGY, published 2019).

This experiment addresses PD-L2 protein. As to the kind of experiment: ELISA on coated protein, goat anti-human FAB-HRP, OD450. A general note: In an ELISA, binding on a coated surface is turned into a signal by an enzyme label.

B1: humanized antibody anti-PD-L1-1 (antibody, V domains shown)
VH: EVQLVQSGAEVKKPGASVKVSCKASGYTFTKYIIHWVRQAPGQGLEWMGWFYPGSGNIRYNEKIKGRVTMTRDTSTSTVYMELSSLRSEDTAVYYCARHGELGGGYFFDYWGQGTTVTVSS
VL: DIQLTQSPSFLSASVGDRVTITCRASSSVSNIHWYQQKPGKAPKPWIYATSNLASGVPSRFSGSGSGTEFTLTISSLQPEDFATYYCQQWSSNPLTFGQGTKLEIKR
notes: Expressed in CHO-KSM4 cells; also called humanized PD-L1 antibody
On to B1, for which the binding result was “no binding (tested: 0.5 µg/mL antibody)”.
